Laboratory results taken from the supplement of paper PMC9135407.
Where “and” joins values, the source holds several entries; their conditions need not be identical. Identical values can stand only once. ± gives the standard deviation of the averaged measurements. The list shows a part of the results. Plates or batches differ in their baseline, so values are only roughly comparable.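 Primary human stellate myofibroblasts activated in culture; inactivation shown by regained lipid droplets. Readout: fraction of Hoechst-counted cells exceeding a per-plate Bodipy threshold, duplicate wells, each plate with DMSO negative and nortriptyline positive controls. Hits: control-normalized score beyond the plate's top-tenth-percentile nortriptyline wells, or among its three best wells. Final well concentrations unstated.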

Tested on: primary human hepatic stellate cells (donor 1)
Assay: percent Bodipy-positive cells; higher = more lipid droplet accumulation
Conditions: 48 h
[1] = library stock concentration: 400 uM
[2] = library stock concentration: 10 mM
[3] = library stock concentration: 80 uM
[4] = library stock concentration: 2 mM
[5] = library stock concentration: 3.33 mM
[6] = library stock concentration: 1 mM

CC[C@@H]1C(=O)N(C)c2cnc(Nc3ccc(C(=O)NC4CCN(C)CC4)cc3OC)nc2N1C1CCCC1
percent Bodipy-positive cells [1]: 82.4 ± 1.4%

C[C@@H]1C[C@H]2[C@@H]3C[C@H](F)C4=CC(=O)C=C[C@]4(C)[C@@]3(Cl)[C@@H](O)C[C@]2(C)[C@H]1C(=O)COC(=O)C(C)(C)C [Clocortolone pivalate]
percent Bodipy-positive cells: 6.08 ± 2.2%

Nc1nc(Cl)nc2c1ncn2[C@@H]1O[C@H](COP(=O)(O)OP(=O)(O)OP(=O)(O)O)[C@H](O)C1O (stereo not given in full) [2-Chloroadenosine triphosphate tetrasodium]
percent Bodipy-positive cells [2]: 70.2 ± 5.1%

CN(C)Cc1cccc(N=C(c2ccccc2)c2c(O)[nH]c3cc(C(=O)N(C)C)ccc23)c1
percent Bodipy-positive cells [3]: 17.8 ± 7.6% | percent Bodipy-positive cells [1]: 19.5 ± 0.27% | percent Bodipy-positive cells [4]: 26 ± 6.6% | percent Bodipy-positive cells [5]: 29.1 ± 1.7% | percent Bodipy-positive cells [2]: 59.5% and 69.8%

NC[C@@H](O)c1ccc(O)c(O)c1 [L(-)-Norepinephrine bitartrate]
percent Bodipy-positive cells [2]: 51.7 ± 15%

CC1(C)C[C@@H]1C(=O)N/C(=C\CCCCSC[C@H](N)C(=O)O)C(=O)O
percent Bodipy-positive cells [2]: 9.95 ± 0.93%

CC1(C)C[C@@H]1C(=O)N/C(=C\CCCCSC[C@H](N)C(=O)O)C(=O)O [Cilastatin sodium]
percent Bodipy-positive cells [2]: 5.92 ± 0.55%

Cc1cc(Cn2cnc3c2C[C@@H](C(=O)O)N(C(=O)C(c2ccccc2)c2ccccc2)C3)ccc1N
percent Bodipy-positive cells [2]: 39.8 ± 9.6%

O=C(O)CCC(=O)O.O=C(O[C@H]1CN2CCC1CC2)N1CCc2ccccc2[C@@H]1c1ccccc1 [Solifenacin succinate]
percent Bodipy-positive cells [2]: 93.3 ± 1.8%

Oc1cc2c(cc1O)CN(C(=S)NCCc1ccc(Cl)cc1)CCC2 [Capsazepine]
percent Bodipy-positive cells [6]: 5.15 ± 1.6% | percent Bodipy-positive cells [2]: 31.5% and 7.57%

CCCCCC(=O)O[C@]1(C(C)=O)CC[C@H]2[C@@H]3CCC4=CC(=O)CC[C@]4(C)[C@H]3CC[C@@]21C [Hydroxyprogesterone caproate]
percent Bodipy-positive cells (library stock concentration: 4.7 mM): 2.15 ± 0.96% | percent Bodipy-positive cells [2]: 23 ± 2%

NS(=O)(=O)C#Cc1ccccc1 [Pifithrin-mu]
percent Bodipy-positive cells [2]: 99.25 ± 0.66%

Cn1cc(C(=O)OCC2CCN(CCNS(C)(=O)=O)CC2)c2ccccc21
percent Bodipy-positive cells [2]: 92.4 ± 3%

Cc1cc(C)cc(OCC2CNC(=O)O2)c1 (stereo not given) [Metaxalone]
percent Bodipy-positive cells (library stock concentration: 9 mM): 13.4 ± 2.2% | percent Bodipy-positive cells [2]: 45.2 ± 5.7%

CC(=O)O[C@H]1C[C@@H]2CC[C@@H]3[C@H](CC[C@@]4(C)[C@H]3C[C@H]([N+]3(C)CCCCC3)[C@@H]4OC(C)=O)[C@@]2(C)C[C@@H]1N1CCCCC1
percent Bodipy-positive cells [2]: 6.11 ± 0.85%

CC(=O)O[C@H]1C[C@@H]2CC[C@@H]3[C@H](CC[C@@]4(C)[C@H]3C[C@H]([N+]3(C)CCCCC3)[C@@H]4OC(C)=O)[C@@]2(C)C[C@@H]1N1CCCCC1 [Vecuronium Bromide]
percent Bodipy-positive cells [5]: 7.74 ± 2.9% | percent Bodipy-positive cells [2]: 12.7 ± 6.1%

O=C(O)CCNc1cc(N2CCc3ccccc3CC2)nc(-c2cccnc2)n1
percent Bodipy-positive cells [3]: 29.3 ± 0.64% | percent Bodipy-positive cells [1]: 40.5 ± 2% | percent Bodipy-positive cells [4]: 41.1 ± 3.4% | percent Bodipy-positive cells [2]: 47.6 ± 4.4%

CC1(C)C(=O)N=C2C1=C(O)C(=O)c1ccccc12
percent Bodipy-positive cells [2]: 77.9 ± 1%

CCCCCCCC/C=C\CCCCCCCC(=O)NCCO [N-Oleoylethanolamine]
percent Bodipy-positive cells [2]: 54.3 ± 2.6%

CCCCCCCC/C=C\CCCCCCCC(=O)NCCO [Oleylethanolamide]
percent Bodipy-positive cells [2]: 17.9 ± 4.9%

CCCCCCCC/C=C\CCCCCCCC(=O)NCCO [Oleoyl Ethanolamide]
percent Bodipy-positive cells [6]: 6.78 ± 0.27%

Cc1nc(Nc2ncc(C(=O)Nc3c(C)cccc3Cl)s2)cc(N2CCN(CCO)CC2)n1
percent Bodipy-positive cells [4]: 74.4 ± 9% | percent Bodipy-positive cells [2]: 96.9 ± 1.7%

C[C@@H](O)[C@H]1C(=O)N2C(C(=O)O)=C(S[C@@H]3CN[C@H](C(=O)N(C)C)C3)[C@H](C)[C@H]12
percent Bodipy-positive cells [2]: 10 ± 2.2%

C[C@@H](O)[C@H]1C(=O)N2C(C(=O)O)=C(S[C@@H]3CN[C@H](C(=O)N(C)C)C3)[C@H](C)[C@H]12 [Meropenem]
percent Bodipy-positive cells: 10.1 ± 2.5% | percent Bodipy-positive cells [5]: 4.49 ± 1.1% | percent Bodipy-positive cells (library stock concentration: 5.2 mM): 8.49 ± 1.6% | percent Bodipy-positive cells [2]: 10.9 ± 5%

CC(=O)NCC(=O)N[C@H](CCC(=O)O)C(=O)O [N-Acetylglycyl-D-glutamic acid]
percent Bodipy-positive cells [2]: 7.86 ± 0.52%

CCN(CC)C(=O)/C(C#N)=C/c1cc(O)c(O)c([N+](=O)[O-])c1 [Entacapone]
percent Bodipy-positive cells [5]: 11.8 ± 2.6% | percent Bodipy-positive cells (library stock concentration: 6.6 mM): 13.3 ± 3.4% | percent Bodipy-positive cells [2]: 42.1 ± 4.3%

C[C@@H]1O[C@@H](OC[C@H]2O[C@@H](Oc3c(-c4ccc(OCCO)c(OCCO)c4)oc4cc(OCCO)cc(O)c4c3=O)[C@H](O)[C@@H](O)[C@@H]2O)[C@H](O)[C@H](O)[C@H]1O [Troxerutin]
percent Bodipy-positive cells [5]: 7.45 ± 0.6% | percent Bodipy-positive cells [2]: 20.9% and 30.8%

C[C@]12C=CC(=O)C=C1CC[C@H]1[C@@H]3C[C@@H](O)[C@](O)(C(=O)CO)[C@@]3(C)C[C@H](O)[C@@]12F [Triamcinolone]
percent Bodipy-positive cells: 19.8 ± 7.3% | percent Bodipy-positive cells [5]: 10.7 ± 6.1% | percent Bodipy-positive cells (library stock concentration: 5.1 mM): 4.03% and 8.1% | percent Bodipy-positive cells [2]: 18.2% and 24.8% and 21.4%

CC1(C)O[C@@H]2C[C@H]3[C@@H]4CCC5=CC(=O)CC[C@]5(C)[C@@]4(F)[C@@H](O)C[C@]3(C)[C@]2(C(=O)CCl)O1 [Halcinonide]
percent Bodipy-positive cells: 5.96 ± 0.69% | percent Bodipy-positive cells [5]: 5.89 ± 3.3% | percent Bodipy-positive cells [2]: 22.5%

CC(C(C)N1CC(=O)NC(=O)C1)N1CC(=O)NC(=O)C1 (stereo not given)
percent Bodipy-positive cells (library stock concentration: 17.7 mM): 18.2 ± 5%

Nc1c(CC(=O)O)cccc1C(=O)c1ccc(Br)cc1 [Bromfenac Sodium]
percent Bodipy-positive cells [5]: 8.99 ± 1% | percent Bodipy-positive cells [2]: 18.3 ± 4.4%

O=C(O)C=C1CCCc2ccccc2C1O (stereo not given)
percent Bodipy-positive cells [2]: 24.6% and 5.62%

COc1cccc(Nc2c(C(N)=O)cnc3c(C)cc(S(=O)(=O)c4cccc(C(=O)N(C)C)c4)cc23)c1
percent Bodipy-positive cells [5]: 8.02 ± 5.5% | percent Bodipy-positive cells [2]: 13.8 ± 3.5%

Cc1c(NC(=O)OC[C@@H]2COCCN2)cn2ncnc(Nc3ccc4c(cnn4Cc4cccc(F)c4)c3)c12.Cl
percent Bodipy-positive cells [5]: 81.6 ± 11% | percent Bodipy-positive cells [2]: 99.55 ± 0.044%
